Measurements published in patent publication US20050118646A1.
Results are given in words; binding and its absence hold for the method and conditions named. In cells and extracts the contact can be indirect. Some binding calls cover weakened binding; strength is not graded here. Tags and fused reporters may be left off the sequences shown.

Assays:
Test in all cases: pull-down on streptavidin beads from cell lysate, TEV release, Ni beads, MS/MS identification; listed D (direct, by literature)
[1] = molecular target: T1, Similar to syntaxin 12 (human) (UniProt Q86Y82)
T1 sequence (looked up): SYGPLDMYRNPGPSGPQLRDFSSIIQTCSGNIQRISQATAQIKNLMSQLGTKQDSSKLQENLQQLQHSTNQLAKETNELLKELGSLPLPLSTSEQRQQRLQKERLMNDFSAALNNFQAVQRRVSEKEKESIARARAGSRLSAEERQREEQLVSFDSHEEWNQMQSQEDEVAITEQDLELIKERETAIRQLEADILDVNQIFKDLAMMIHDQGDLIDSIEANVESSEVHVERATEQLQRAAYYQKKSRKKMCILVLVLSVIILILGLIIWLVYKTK

[2] = molecular target: T2, cis-Golgi SNARE p28 (human) (UniProt O95249)
T2 sequence (looked up): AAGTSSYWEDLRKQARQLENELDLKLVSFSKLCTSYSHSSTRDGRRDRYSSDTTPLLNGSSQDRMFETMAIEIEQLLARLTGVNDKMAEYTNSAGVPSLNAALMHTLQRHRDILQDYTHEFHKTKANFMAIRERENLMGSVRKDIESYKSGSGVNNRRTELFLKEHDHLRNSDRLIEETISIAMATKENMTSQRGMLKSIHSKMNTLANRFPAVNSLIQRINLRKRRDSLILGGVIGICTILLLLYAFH

[3] = molecular target: T3, syntaxin 18 (human) (UniProt Q9P2W9)
T3 sequence (looked up): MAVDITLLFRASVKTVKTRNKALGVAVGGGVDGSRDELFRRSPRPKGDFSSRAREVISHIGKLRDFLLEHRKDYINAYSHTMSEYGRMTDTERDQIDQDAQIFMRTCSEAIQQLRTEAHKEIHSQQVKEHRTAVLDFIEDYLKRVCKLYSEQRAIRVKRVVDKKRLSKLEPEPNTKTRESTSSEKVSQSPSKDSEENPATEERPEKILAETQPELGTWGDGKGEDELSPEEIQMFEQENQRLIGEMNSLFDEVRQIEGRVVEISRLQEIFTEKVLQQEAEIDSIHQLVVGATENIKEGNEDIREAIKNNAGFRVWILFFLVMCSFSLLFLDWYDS

[4] = molecular target: T4, syntaxin 5 - human (human) (UniProt Q13190)
T4 sequence (looked up): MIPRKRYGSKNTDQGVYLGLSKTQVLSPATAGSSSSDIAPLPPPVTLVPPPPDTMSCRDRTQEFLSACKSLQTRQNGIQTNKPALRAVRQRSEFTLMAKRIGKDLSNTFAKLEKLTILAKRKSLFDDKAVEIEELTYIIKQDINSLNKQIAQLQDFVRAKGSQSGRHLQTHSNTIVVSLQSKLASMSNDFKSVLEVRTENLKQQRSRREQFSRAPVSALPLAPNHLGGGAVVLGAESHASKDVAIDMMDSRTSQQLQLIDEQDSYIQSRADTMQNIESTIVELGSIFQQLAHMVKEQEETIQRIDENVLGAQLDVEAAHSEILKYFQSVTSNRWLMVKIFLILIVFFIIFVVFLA

[5] = molecular target: T5, syntaxin 6 (human) (UniProt O43752)
T5 sequence (looked up): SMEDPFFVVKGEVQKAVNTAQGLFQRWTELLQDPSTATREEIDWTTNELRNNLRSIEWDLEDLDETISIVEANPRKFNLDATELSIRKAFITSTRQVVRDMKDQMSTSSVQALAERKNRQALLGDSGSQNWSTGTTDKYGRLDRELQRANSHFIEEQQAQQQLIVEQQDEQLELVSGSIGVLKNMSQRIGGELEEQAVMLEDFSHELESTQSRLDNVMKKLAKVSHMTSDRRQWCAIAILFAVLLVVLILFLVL

- binding [1]: binds
- binding [2]: binds
- binding [3]: binds
- binding [4]: binds
- binding [5]: binds
B1: E24-tagged NAPA (AviTag-TEV cleavage site-His6-PrC-NAPA), biotinylated (protein)
chain: MSGLNDIFEAQKIEWHEGAISAENLYFQGSSAHHHHHHGSEDQVDPRLIDGKMDNSGKEAEAMALLAEAERKVKNSQSFFSGLFGGSSKIEEACEIYARAANMFKMAKNWSAAGNAFCQAAQLHLQLQSKHDAATCFVDAGNAFKKADPQEAINCLMRAIEIYTDMGRFTIAAKHHISIAEIYETELVDIEKAIAHYEQSADYYKGEESNSSANKCLLKVAGYAALLEQYQKAIDIYEQVGTNAMDSPLLKYSAKDYFFKAALCHFCIDMLNAKLAVQKYEELFPAFSDSRECKLMKKLLEAHEEQNVDSYTESVKEYDSISRLDQWLTTMLLRIKKTIQGDEEDLR
modifications: biotin attached to the AviTag (BirA recognition sequence) by BirA in vitro
